# Laboratory results published in patent US10808024B2, “Antibodies against immunocomplexes comprising cyanobacterial cyclic peptide hepatotoxins” (priority 2015, dated 2020).
# Some entries share one result that the patent states for a list of compounds. Some ranges recur; such a range may be that of the whole group of compounds.
# Tested on: biotinylated anti-Adda Mab, no CCPH
# Experiment: TR-IFMA background signal without CCPH
# Assay type: binding
# Protocol: By way of example, the specificity of SA51D1 to the immune complex was also seen in our immunoassay, where streptavidin-coated 96-well microtiter wells were used to capture a complex formed by biotinylated anti-Adda Mab, CCPH, SA51D1 antibody fused to alkaline phosphatase and this complex was detected with europium-labelled anti-alkaline phosphatase Pab. […] With 10 μg/l level of MC-LR the fluorescence signal was 789966 counts.
row,Molecule,Background fluorescence signal level
1,"SA56B8: variant-specific anti-IC antibody, MC-LR (antibody, V domains shown, Clone SA56B8; DOMAIN (31)..(35) CDR1; DOMAIN (50)..(66) CDR2; DOMAIN (99)..(106) CDR3; DOMAIN (24)..(35) CDR1; DOMAIN (51)..(57) CDR2; DOMAIN (90)..(98) CDR3) VH: EVQLLESGGGLVQPGGSLRLSCAASGFTFSDYWMHWVRQAPGKGLEWVSYINPYGGYTDYADSVKGRFTISRDNSKNTLYLQMNSLRAEDTAVYYCARYVRRHFDYWGQGTLVTVSS VL: EIVLTQSPGTLSLSPGERATLSCRASQSVSSSYLAWYQQKPGQAPRLLIYGASSRATGVPDRFSGSGSGTDFTLTISRLEPEDFAVYYCQQSSSYPWTFGQGTKVEIKRT",140-444 counts
2,"SA55D1: MC-LZ subgroup-specific anti-IC binder (antibody, V domains shown, Clone SA55D1; DOMAIN (31)..(35) CDR1; DOMAIN (50)..(66) CDR2; DOMAIN (99)..(110) CDR3; DOMAIN (24)..(35) CDR1; DOMAIN (51)..(57) CDR2; DOMAIN (90)..(98) CDR3) VH: EVQLLESGGGLVQPGGSLRLSCAASGFTFSSDVMHWVRQAPGKGLEWVSVISPYDGYTRYADSVKGRFTISRDNSKNTLYLQMNSLRAEDTAVYYCARHKGGYRRAYMDYWGQGTLVTVSS VL: EIVLTQSPGTLSLSPGERATLSCRASQSVSSSALAWYQQKPGQAPRLLIYGASSRATGVPDRFSGSGSGTDFTLTISRLEPEDFAVYYCQQSYSYPWTFGQGTKVEIKRT",140-444 counts
3,"SA51D12: variant-specific anti-IC antibody, MC-LR (antibody, V domains shown, Clone SA51D12; DOMAIN (31)..(35) CDR1; DOMAIN (50)..(66) CDR2; DOMAIN (99)..(111) CDR3; DOMAIN (24)..(35) CDR1; DOMAIN (51)..(57) CDR2; DOMAIN (90)..(98) CDR3) VH: EVQLLESGGGLVQPGGSLRLSCAASGFTFSSDVMHWVRQAPGKGLEWVSVISGYDGYTRYADSVKGRFTISRDNSKNTLYLQMNSLRAEDTAVYYCARGVPYLYGAYSFDYWGQGTLVTVSS VL: EIVLTQSPGTLSLSPGERATLSCRASQSVSSSNLAWYQQKPGQAPRLLIYGASSRATGVPDRFSGSGSGTDFTLTISRLEPEDFAVYYCQQSSTPWTFGQGTKVEIKRT",140-444 counts
4,"SA41B5: variant-specific anti-IC antibody, MC-RR (antibody, V domains shown, Clone SA41B5; DOMAIN (31)..(35) CDR1; DOMAIN (50)..(66) CDR2; DOMAIN (99)..(109) CDR3; DOMAIN (24)..(35) CDR1; DOMAIN (51)..(57) CDR2; DOMAIN (90)..(98) CDR3) VH: EVQLLESGGGLVQPGGSLRLSCAASGFTFSSDVMHWVRQAPGKGLEWVSVINPYDGSTYYADSVKGRFTISRDNSKNTLYLQMNSLRAEDTAVYYCARAVAGQGGYFDYWGQGTLVTVSS VL: EIVLTQSPGTLSLSPGERATLSCRASQSVSSSNLAWYQQKPGQAPRLLIYGASSRATGVPDRFSGSGSGTDFTLTISRLEPEDFAVYYCQQSSSLPWTFGQGTKVEIKRT",140-444 counts
5,"SA32C11: variant-specific anti-IC antibody, Nod-R (antibody, V domains shown, Clone SA32C11; DOMAIN (31)..(35) CDR1; DOMAIN (50)..(66) CDR2; DOMAIN (99)..(108) CDR3; DOMAIN (24)..(35) CDR1; DOMAIN (51)..(57) CDR2; DOMAIN (90)..(98) CDR3) VH: EVQLLESGGGLVQPGGSLRLSCAASGFTFSDYWMHWVRQAPGKGLEWVSEINTSNGNTYYADSVKGRFTISRDNSKNTLYLQMNSLRAEDTAVYYCARESWWPYSFDYWGQGTLVTVSS VL: EIVLTQSPGTLSLSPGERATLSCRASQSVSSSNLAWYQQKPGQAPRLLIYGASSRATGVPDRFSGSGSGTDFTLTISRLEPEDFAVYYCQQSSSLPWTFGQGTKVEIKRT",140-444 counts

# Tested on: immunocomplex of CCPH and biotinylated anti-Adda mAb
# Experiment: Single-step non-competitive chromogenic ELISA with SA51D1 scFv-alkaline phosphatase
# Assay type: binding
row,Molecule,Sensitivity
1,MC-YR,below 0.1 μg/L
